This assay has as its target BAKΔcysΔN22ΔC25 CT His with K113C mutation (human). Description: cross-linking; 9 µM BAK K113C with or without pre-incubation with 1.5× 14G6, then 4× BID R84C BH3 peptide, with or without 2 mM CuPhe, 1 h at room temperature; disulfide link seen as a band shift on non-reducing SDS-PAGE; both purified.

No constants are given. Whether binding was seen depends on the method and setting. A result given as binding can be weak or reduced; the word gives no strength.

Drawing on publication PMC11164899, “A novel inhibitory BAK antibody enables assessment of non-activated BAK in cancer cells” (Cell Death and Differentiation, 2024), this text covers binding for 1 molecule.

Turning to DSESQEDIICNIARHLAQVGDSMDRSIPPGLVNGL (biotin on the N-terminus; C-terminal amide) [BID R84C BH3 peptide], the binding entry is “binds”.
